Test results reported in paper doi:10.1101/2023.08.23.554462.
These are yes or no findings as the source states them, for the method shown. In cells and extracts the contact can be indirect. These calls come from enrichment with a bait or labelling near it, and not all partners need be listed.

The chains behind the UniProt entries cited, without tags or fusion partners.
UniProt Q9UNE7: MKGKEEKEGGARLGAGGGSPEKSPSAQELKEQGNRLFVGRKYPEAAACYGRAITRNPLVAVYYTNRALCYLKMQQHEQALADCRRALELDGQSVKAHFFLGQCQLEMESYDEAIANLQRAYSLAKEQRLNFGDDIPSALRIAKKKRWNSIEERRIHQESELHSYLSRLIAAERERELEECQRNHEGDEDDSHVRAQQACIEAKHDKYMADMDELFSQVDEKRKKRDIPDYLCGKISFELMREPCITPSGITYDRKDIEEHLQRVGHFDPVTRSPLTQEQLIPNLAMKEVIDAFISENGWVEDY
UniProt Q5VYK3: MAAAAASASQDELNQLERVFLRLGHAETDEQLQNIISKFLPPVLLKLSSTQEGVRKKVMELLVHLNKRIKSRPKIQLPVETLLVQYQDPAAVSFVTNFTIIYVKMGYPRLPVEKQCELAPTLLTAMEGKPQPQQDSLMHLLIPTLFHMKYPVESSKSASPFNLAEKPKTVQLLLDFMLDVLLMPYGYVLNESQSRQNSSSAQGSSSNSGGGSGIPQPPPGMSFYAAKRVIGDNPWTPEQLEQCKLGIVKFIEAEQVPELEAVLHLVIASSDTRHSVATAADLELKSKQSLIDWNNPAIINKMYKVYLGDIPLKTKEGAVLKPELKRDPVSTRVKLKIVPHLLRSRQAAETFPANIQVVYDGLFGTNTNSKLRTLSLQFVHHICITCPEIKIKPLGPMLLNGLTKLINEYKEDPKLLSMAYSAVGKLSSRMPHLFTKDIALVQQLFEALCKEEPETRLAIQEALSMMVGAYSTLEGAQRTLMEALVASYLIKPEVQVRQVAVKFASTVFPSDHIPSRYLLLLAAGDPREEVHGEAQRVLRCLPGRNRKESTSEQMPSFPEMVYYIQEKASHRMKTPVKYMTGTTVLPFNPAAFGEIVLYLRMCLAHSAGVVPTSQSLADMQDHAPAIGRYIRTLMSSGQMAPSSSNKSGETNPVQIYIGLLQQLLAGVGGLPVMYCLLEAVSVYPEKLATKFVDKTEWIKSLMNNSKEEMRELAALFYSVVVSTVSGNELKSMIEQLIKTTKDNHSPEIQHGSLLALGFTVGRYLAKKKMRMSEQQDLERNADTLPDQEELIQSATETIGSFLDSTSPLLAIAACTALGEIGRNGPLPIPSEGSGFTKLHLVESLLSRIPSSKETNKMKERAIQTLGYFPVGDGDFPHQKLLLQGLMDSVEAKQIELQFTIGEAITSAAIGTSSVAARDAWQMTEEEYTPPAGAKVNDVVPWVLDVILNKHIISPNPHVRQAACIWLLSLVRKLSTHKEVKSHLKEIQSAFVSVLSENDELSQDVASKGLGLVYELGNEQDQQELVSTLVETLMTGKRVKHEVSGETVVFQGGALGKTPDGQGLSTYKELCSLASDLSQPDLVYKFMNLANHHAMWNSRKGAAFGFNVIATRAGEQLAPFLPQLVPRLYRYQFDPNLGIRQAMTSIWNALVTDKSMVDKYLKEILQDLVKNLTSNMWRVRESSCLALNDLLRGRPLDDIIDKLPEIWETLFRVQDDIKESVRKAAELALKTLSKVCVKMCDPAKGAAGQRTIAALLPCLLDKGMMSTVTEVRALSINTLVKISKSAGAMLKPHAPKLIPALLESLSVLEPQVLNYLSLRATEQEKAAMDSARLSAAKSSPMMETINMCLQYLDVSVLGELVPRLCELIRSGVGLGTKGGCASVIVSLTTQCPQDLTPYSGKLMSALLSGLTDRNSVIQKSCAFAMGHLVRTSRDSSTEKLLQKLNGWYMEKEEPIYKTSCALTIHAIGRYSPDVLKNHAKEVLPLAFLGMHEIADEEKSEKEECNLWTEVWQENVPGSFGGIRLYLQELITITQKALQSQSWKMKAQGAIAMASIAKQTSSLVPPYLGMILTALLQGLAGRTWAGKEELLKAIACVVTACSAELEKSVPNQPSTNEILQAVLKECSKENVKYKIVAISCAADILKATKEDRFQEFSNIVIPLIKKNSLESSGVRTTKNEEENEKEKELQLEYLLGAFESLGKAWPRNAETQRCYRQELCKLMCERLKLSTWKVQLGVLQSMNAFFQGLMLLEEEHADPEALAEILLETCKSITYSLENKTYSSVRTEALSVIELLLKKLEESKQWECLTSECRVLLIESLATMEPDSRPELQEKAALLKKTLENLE
UniProt Q58FF8: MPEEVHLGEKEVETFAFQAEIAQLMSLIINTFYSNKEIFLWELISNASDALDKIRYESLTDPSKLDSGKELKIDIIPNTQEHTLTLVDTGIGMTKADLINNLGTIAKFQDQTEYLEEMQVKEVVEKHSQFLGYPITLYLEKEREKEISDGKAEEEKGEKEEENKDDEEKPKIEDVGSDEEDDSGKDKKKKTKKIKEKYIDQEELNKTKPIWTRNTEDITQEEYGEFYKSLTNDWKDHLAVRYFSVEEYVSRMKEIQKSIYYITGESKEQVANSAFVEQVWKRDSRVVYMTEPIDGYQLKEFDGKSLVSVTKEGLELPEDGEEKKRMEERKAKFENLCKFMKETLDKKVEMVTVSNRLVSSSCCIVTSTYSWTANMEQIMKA
UniProt P54652: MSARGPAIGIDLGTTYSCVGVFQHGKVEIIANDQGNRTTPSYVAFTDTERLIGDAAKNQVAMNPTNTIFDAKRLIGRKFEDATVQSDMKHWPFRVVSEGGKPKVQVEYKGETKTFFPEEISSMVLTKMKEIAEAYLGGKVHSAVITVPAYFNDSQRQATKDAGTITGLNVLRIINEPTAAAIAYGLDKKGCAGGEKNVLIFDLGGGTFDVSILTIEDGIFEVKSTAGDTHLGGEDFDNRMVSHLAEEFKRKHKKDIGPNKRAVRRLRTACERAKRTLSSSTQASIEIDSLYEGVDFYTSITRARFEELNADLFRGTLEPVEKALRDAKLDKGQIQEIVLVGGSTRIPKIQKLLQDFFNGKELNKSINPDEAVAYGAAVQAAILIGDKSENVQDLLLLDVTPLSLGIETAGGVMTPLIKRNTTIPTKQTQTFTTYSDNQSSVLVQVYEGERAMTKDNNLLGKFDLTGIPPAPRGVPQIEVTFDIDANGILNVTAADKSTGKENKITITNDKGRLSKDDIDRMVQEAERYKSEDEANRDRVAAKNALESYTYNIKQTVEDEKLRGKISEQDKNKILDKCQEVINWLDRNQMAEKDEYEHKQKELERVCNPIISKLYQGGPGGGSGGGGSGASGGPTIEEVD
UniProt O95757: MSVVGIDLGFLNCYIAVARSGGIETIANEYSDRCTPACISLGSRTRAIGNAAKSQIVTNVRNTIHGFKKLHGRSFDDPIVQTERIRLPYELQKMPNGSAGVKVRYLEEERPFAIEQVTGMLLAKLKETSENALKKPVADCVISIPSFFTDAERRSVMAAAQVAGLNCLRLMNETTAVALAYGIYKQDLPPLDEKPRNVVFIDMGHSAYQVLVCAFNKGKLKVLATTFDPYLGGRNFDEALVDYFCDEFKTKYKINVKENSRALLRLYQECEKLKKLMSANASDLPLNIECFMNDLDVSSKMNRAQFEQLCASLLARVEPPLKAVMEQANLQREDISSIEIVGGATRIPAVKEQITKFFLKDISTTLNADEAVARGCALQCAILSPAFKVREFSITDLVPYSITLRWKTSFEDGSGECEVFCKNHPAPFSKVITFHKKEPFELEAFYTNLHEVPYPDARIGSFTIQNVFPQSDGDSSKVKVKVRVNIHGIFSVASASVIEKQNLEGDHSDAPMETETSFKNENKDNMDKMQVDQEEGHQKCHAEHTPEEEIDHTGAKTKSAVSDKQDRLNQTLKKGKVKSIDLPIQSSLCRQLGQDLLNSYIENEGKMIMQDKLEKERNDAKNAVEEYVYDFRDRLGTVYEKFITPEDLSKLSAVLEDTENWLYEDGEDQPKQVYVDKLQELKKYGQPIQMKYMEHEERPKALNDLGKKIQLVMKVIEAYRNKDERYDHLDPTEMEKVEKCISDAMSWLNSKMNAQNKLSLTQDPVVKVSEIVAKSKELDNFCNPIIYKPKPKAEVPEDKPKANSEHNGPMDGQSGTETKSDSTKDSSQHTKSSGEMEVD
UniProt Q92598: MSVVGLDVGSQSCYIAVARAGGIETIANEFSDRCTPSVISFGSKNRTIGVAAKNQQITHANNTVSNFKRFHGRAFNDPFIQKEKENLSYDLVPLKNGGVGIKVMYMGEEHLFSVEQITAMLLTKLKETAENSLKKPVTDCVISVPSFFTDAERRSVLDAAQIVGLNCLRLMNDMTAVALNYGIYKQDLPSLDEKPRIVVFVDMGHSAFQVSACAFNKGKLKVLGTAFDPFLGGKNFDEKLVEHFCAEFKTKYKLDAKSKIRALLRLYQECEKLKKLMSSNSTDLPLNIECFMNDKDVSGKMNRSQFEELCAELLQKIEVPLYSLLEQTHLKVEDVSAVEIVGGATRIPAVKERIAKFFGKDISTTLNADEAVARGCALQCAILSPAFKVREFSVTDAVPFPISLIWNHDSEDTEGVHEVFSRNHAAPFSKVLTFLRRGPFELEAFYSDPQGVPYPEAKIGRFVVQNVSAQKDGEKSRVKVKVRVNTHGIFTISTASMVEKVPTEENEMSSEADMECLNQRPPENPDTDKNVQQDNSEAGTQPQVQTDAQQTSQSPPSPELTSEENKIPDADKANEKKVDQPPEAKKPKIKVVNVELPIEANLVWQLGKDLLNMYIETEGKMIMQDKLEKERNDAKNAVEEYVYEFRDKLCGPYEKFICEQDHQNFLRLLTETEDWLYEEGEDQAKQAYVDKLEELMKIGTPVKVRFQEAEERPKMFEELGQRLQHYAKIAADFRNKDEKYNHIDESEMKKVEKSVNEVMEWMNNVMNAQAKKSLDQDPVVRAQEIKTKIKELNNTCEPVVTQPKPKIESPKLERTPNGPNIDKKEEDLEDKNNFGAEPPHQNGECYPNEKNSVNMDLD
UniProt P28066: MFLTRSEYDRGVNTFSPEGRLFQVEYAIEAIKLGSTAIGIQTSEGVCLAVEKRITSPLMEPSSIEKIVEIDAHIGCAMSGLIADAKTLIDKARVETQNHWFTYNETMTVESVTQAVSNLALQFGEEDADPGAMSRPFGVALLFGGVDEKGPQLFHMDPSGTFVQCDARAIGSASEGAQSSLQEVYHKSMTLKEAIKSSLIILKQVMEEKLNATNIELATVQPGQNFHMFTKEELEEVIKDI
UniProt P62333: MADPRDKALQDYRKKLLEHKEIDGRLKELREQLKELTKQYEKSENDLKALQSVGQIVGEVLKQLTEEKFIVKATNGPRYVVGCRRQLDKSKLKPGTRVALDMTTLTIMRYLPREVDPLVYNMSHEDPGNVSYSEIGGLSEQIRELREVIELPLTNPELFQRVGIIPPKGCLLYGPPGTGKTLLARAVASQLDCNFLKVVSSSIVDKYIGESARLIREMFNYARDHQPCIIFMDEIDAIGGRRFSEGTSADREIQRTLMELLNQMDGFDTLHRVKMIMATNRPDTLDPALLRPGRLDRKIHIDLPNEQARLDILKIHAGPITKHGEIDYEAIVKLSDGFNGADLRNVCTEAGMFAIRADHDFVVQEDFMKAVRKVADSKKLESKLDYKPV
UniProt Q15008: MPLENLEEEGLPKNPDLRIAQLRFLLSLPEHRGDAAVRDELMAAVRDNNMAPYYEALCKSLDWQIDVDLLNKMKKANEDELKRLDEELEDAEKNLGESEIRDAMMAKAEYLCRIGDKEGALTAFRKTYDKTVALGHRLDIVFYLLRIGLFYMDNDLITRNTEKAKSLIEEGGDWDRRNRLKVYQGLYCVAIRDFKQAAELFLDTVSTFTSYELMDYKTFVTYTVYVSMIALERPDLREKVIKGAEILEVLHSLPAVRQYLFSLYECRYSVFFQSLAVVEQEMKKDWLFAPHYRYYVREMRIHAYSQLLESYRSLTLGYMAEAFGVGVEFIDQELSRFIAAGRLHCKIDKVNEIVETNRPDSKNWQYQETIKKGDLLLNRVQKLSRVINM
UniProt Q9BYJ9: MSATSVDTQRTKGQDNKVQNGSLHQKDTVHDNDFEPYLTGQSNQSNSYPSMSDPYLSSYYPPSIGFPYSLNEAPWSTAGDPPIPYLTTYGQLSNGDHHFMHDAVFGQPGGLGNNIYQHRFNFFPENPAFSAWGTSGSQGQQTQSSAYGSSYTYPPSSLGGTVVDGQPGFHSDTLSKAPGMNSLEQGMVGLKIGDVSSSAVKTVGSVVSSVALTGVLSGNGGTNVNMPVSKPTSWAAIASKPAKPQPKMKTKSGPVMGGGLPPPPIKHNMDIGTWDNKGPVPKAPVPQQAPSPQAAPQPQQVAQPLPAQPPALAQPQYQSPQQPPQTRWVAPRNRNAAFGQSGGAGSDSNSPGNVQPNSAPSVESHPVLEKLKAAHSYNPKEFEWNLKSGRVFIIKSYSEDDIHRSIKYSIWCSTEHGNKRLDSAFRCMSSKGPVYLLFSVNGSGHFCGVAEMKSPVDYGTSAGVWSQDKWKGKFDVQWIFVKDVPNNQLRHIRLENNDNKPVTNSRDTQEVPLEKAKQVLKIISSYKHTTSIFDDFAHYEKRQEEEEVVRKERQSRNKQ

B1: HSPBP1 (protein, UniProt Q9NZL4 1-359)
chain: MSDEGSRGSRLPLALPPASQGCSSGGGGGGSSAGGSGNSRPPRNLQGLLQMAITAGSEEPDPPPEPMSEERRQWLQEAMSAAFRGQREEVEQMKSCLRVLSQPMPPTAGEAEQAADQQEREGALELLADLCENMDNAADFCQLSGMHLLVGRYLEAGAAGLRWRAAQLIGTCSQNVAAIQEQVLGLGALRKLLRLLDRDACDTVRVKALFAISCLVREQEAGLLQFLRLDGFSVLMRAMQQQVQKLKVKSAFLLQNLLVGHPEHKGTLCSMGMVQQLVALVRTEHSPFHEHVLGALCSLVTDFPQGVRECREPELGLEELLRHRCQLLQQHEEYQEELEFCEKLLQTCFSSPADDSMDR

Biological target: StrepII-tagged STUB1 (STIP1 homology and U-box protein 1), stably expressed in OS-RC-2 cells (UniProt Q9UNE7)
Assay: affinity purification with mass spectrometry

binding, binds:
ECPAS (from UniProt Q5VYK3 1-1845)
HSP90AB2P (from UniProt Q58FF8 1-381)
HSPA2 (from UniProt P54652 1-639)
HSPA4 (from UniProt P34932 1-840)
HSPA4L (from UniProt O95757 1-839)
HSPH1 (from UniProt Q92598 1-858)
PSMA5 (from UniProt P28066 1-241)
PSMC6 (from UniProt P62333 1-389)
PSMD6 (from UniProt Q15008 1-389)
YTHDF1 (endogenous, found by AP-MS) (from UniProt Q9BYJ9 1-559)
B1
